# Laboratory results reported in article PMC5658604.
# Biological target: T1, TtSmtB (Thermus thermophilus HB27) (UniProt Q72KG0)
# T1 sequence (looked up): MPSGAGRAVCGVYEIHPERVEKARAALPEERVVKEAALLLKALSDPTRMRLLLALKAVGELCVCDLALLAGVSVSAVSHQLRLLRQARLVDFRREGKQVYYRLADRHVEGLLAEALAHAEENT
# Assay: EMSA
# Settings: 50- and 100-fold molar excess, 2.5 uM protein, EMSA as in Fiorentino et al., 2007 (buffer not given here), 0-15 uM protein, 1 nM probe in the competition assay, footprinting in binding buffer, DNase I 1 min at 37 C, recombinant protein, residues 1-123, protein details: His tag (pET28b) removed by thrombin, probe letters rebuilt from the primers and the genome
sequence,measurement,setting,value
CGCCTCGCCGACCGGCACGTGGAGGGCCTGTTGGCGGAGGCCCTGGCCCACGCGGAAGAAAACACTTGACCAGTTGCTCAAATGATGCTACCCTGGGGGCATGAAGGCTCCCAGAGTGCGCGTCTTCCGGGTAGAGGGCATGG (double strand) [0354p (TTC0354 promoter)],binding result,arsenate (KH2AsO4),binds more weakly
same,binding result,"arsenite (NaAsO2), less efficient than arsenate",binds more weakly

# The exact form of at least one protein or probe is not confirmed. The comparison behind a weaker result is the experiment's own reference, which may not be listed here. Protein sequences can lack the tags named with them.
